Patent US11135246B2, “Peptides and combination of peptides for use in immunotherapy against leukemias and other cancers” (Immatics Biotechnologies GmbH, priority 2017, dated 2021)

Tested on: HLA molecules of primary tumor samples
Assay: Identification of tumor associated peptides presented on the cell surface (HLA immune precipitation, LC-MS)
Parameters: species or system human
Details: for Peptide Presentation on cancer entities: entities on which the peptide was presented, CLL = chronic lymphocytic leukemia, AML = acute myeloid leukemia, CML = Chronic myeloid leukemia; for Peptide Presentation on tumor types: tumor entities on which the peptide was found presented (Table 8b)

Row | Substance | Peptide Presentation on cancer entities | Peptide Presentation on tumor types
1 | 120 (VPPKKHLL; listed as Homo sapiens) [compound 120] | CLL | 
2 | 121 (RPKKVNTL; listed as Homo sapiens) [compound 121] | CLL | 
3 | 122 (KELPGVKKY; listed as Homo sapiens) [compound 122] | CLL | CCC, CRC, GC, HCC, NHL, NSCLCadeno, NSCLCsquam, OSCAR, PACA, RCC, UEC
4 | 123 (EENPGKFLF; listed as Homo sapiens) [compound 123] | CLL | HNSCC, MEL, NHL, NSCLCadeno, NSCLCsquam, OSCAR, PRCA
5 | 124 (SESLPKEAF; listed as Homo sapiens) [compound 124] | CLL | BRCA, CCC, CRC, GBC, GBM, GC, GEJC, HCC, HNSCC, MEL, NHL, NSCLCadeno, NSCLCother, NSCLCsquam, OC, OSCAR, PACA, PRCA, RCC, SCLC, UBC, UEC
6 | 125 (SESTFDRTF; listed as Homo sapiens) [compound 125] | CLL | 
7 | 126 (EENKPGIVY; listed as Homo sapiens) [compound 126] | CLL | CRC, HCC, NHL
8 | 127 (TEYPVFVY; listed as Homo sapiens) [compound 127] | AML | 
9 | 128 (GENDRLNHTY; listed as Homo sapiens) [compound 128] | CLL | NHL
10 | 129 (GEGAYGKVF; listed as Homo sapiens) [compound 129] | AML | HCC, HNSCC, NSCLCadeno, OC, OSCAR, RCC
11 | 130 (EEEHGKGREY; listed as Homo sapiens) [compound 130] | CLL | 
12 | 131 (EEFETIERF; listed as Homo sapiens) [compound 131] | CLL | BRCA, CCC, CRC, GBC, GBM, GC, GEJC, HCC, HNSCC, MEL, NHL, NSCLCadeno, NSCLCother, NSCLCsquam, OC, OSCAR, PACA, PRCA, RCC, SCLC, UBC, UEC
13 | 132 (GELPAVRDL; listed as Homo sapiens) [compound 132] | CLL | CRC, GBC, GBM, GC, HCC, HNSCC, NHL, NSCLCadeno, NSCLCother, NSCLCsquam, OC, OSCAR, PACA
14 | 133 (AEHNFVAKA; listed as Homo sapiens) [compound 133] | CLL | BRCA, GBM, HNSCC, MEL, NHL, NSCLCadeno, OC, OSCAR
15 | 134 (SEYADTHYF; listed as Homo sapiens) [compound 134] | CLL | NHL
16 | 135 (NEIKVYITF; listed as Homo sapiens) [compound 135] | AML, CML | BRCA, CRC, HNSCC, NSCLCadeno, NSCLCsquam, PRCA, RCC
17 | 136 (AEYKGRVTL; listed as Homo sapiens) [compound 136] | CLL | NHL, OSCAR
18 | 137 (GELGGSVTI; listed as Homo sapiens) [compound 137] | CLL | 
19 | 138 (SQAPAARAF; listed as Homo sapiens) [compound 138] | CLL | NHL, NSCLCadeno

Row | Substance | Peptide Presentation on cancer entities | Peptide Presentation on tumor types
20 | 139 (RENQVLGSGW; listed as Homo sapiens) [compound 139] | CLL | NHL
21 | 140 (EYDLKWEF; listed as Homo sapiens) [compound 140] | AML | 
22 | 141 (REYEYDLKWEF; listed as Homo sapiens) [compound 141] | AML | 
23 | 142 (TEIFKEHNF; listed as Homo sapiens) [compound 142] | AML | 
24 | 143 (YEYDLKWEF; listed as Homo sapiens) [compound 143] | AML | NHL
25 | 144 (TEGKRYFTW; listed as Homo sapiens) [compound 144] | CLL | MEL, NHL
26 | 145 (AEPLVGQRW; listed as Homo sapiens) [compound 145] | CLL | NHL, PRCA, UBC
27 | 146 (SESKTVVTY; listed as Homo sapiens) [compound 146] | CLL | CRC, GC, HCC, HNSCC, MEL, NHL, NSCLCadeno, NSCLCsquam, OC, OSCAR, PACA, PRCA, RCC, SCLC, UBC, UEC
28 | 147 (KEVPRSYEL; listed as Homo sapiens) [compound 147] | CLL | HNSCC, NHL, NSCLCadeno, NSCLCsquam, OC, OSCAR, RCC
29 | 148 (REYNEYENI; listed as Homo sapiens) [compound 148] | CLL | NHL, NSCLCadeno, OSCAR
30 | 149 (SEKETVAYF; listed as Homo sapiens) [compound 149] | CLL | MEL, NHL
31 | 150 (EEVTDRSQL; listed as Homo sapiens) [compound 150] | CLL | GBC, GC, NHL, NSCLCadeno, NSCLCother, NSCLCsquam, OC
32 | 151 (EVDASIFKAW; listed as Homo sapiens) [compound 151] | CLL | BRCA, CCC, GBC, GBM, HCC, HNSCC, NHL, NSCLCsquam, OC, OSCAR, PACA, PRCA, SCLC, UBC, UEC
33 | 152 (AELLAKELY; listed as Homo sapiens) [compound 152] | CLL | CCC, CRC, NHL, NSCLCsquam, UEC
34 | 153 (KEFEQVPGHL; listed as Homo sapiens) [compound 153] | CLL | 
35 | 154 (AEPGPVITW; listed as Homo sapiens) [compound 154] | CLL | NHL
36 | 155 (NEFPVIVRL; listed as Homo sapiens) [compound 155] | CLL | BRCA, CRC, GBC, GBM, GC, HNSCC, MEL, NHL, NSCLCadeno, NSCLCother, NSCLCsquam, OC, OSCAR, PACA, PRCA, RCC, SCLC, UBC, UEC
37 | 156 (FEVESLFQKY; listed as Homo sapiens) [compound 156] | CLL | BRCA, CRC, GBC, GC, GEJC, HCC, HNSCC, MEL, NHL, NSCLCadeno, NSCLCsquam, OC, OSCAR, PACA, PRCA, RCC, SCLC, UEC
38 | 157 (VEIAEAIQL; listed as Homo sapiens) [compound 157] | CLL | CCC, CRC, HNSCC, NSCLCadeno, NSCLCother, NSCLCsquam, OC

Row | Substance | Peptide Presentation on cancer entities | Peptide Presentation on tumor types
39 | 158 (GENEDNRIGL; listed as Homo sapiens) [compound 158] | CLL | 
40 | 159 (GELLGRQSF; listed as Homo sapiens) [compound 159] | CLL | BRCA, CCC, CRC, MEL, NHL, NSCLCadeno, OC, PACA, RCC, UEC
41 | 160 (EEETILHFF; listed as Homo sapiens) [compound 160] | CLL | NHL
42 | 161 (EEGDTLLHLF; listed as Homo sapiens) [compound 161] | CLL | CRC, HNSCC, NHL, NSCLCsquam, OSCAR, PACA, UBC, UEC
43 | 162 (DEAQARAAF; listed as Homo sapiens) [compound 162] | AML | 
44 | 163 (EEWMGLLEY; listed as Homo sapiens) [compound 163] | AML | 
45 | 164 (SEYSHLTRV; listed as Homo sapiens) [compound 164] | AML | RCC
46 | 165 (VELDLQRSV; listed as Homo sapiens) [compound 165] | AML | 
47 | 166 (NEVLASKY; listed as Homo sapiens) [compound 166] | CLL | BRCA, CCC, CRC, GBC, GC, HCC, NHL, NSCLCadeno, NSCLCsquam, OC, OSCAR, PRCA, SCLC, UBC, UEC
48 | 167 (KEIGAAVQAL; listed as Homo sapiens) [compound 167] | CLL | NSCLCadeno, NSCLCother, OC
49 | 168 (QEIQSLLTNW; listed as Homo sapiens) [compound 168] | CLL | CCC, CRC, GBM, HCC, HNSCC, MEL, NHL, NSCLCadeno, NSCLCsquam, OSCAR, PACA, RCC, SCLC, UEC
50 | 169 (EENGEVKEL; listed as Homo sapiens) [compound 169] | CLL | NHL
51 | 170 (SENEQRRMF; listed as Homo sapiens) [compound 170] | CLL | 
52 | 171 (SEDLAVHLY; listed as Homo sapiens) [compound 171] | CLL | BRCA, CRC, GC, HCC, HNSCC, NHL, OSCAR, PACA, PRCA, UBC
53 | 172 (VEDGLFHEF; listed as Homo sapiens) [compound 172] | CLL | BRCA, CRC, GC, HCC, HNSCC, MEL, NHL, NSCLCadeno, NSCLCsquam, OC, OSCAR, PACA, PRCA, RCC, UBC, UEC
54 | 173 (KEYDFGTQL; listed as Homo sapiens) [compound 173] | AML | 
55 | 174 (TDKSFPNAY; listed as Homo sapiens) [compound 174] | CLL | PRCA, SCLC
56 | 175 (HEIDGKALFL; listed as Homo sapiens) [compound 175] | AML | 
57 | 176 (AENAVSNLSF; listed as Homo sapiens) [compound 176] | CLL | NHL
